Data reported in publication PMC5864832.

Protein sequences, listed by entry. Tags and fused reporters are not part of them. Residues count along the entry.
UniProt P25786: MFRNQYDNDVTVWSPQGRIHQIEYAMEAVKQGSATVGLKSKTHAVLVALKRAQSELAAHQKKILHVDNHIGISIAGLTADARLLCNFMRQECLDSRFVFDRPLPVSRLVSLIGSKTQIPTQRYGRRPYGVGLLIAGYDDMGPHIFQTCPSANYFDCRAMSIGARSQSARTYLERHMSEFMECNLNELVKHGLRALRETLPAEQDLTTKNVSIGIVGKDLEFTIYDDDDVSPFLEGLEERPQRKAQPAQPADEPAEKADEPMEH
UniProt P50613: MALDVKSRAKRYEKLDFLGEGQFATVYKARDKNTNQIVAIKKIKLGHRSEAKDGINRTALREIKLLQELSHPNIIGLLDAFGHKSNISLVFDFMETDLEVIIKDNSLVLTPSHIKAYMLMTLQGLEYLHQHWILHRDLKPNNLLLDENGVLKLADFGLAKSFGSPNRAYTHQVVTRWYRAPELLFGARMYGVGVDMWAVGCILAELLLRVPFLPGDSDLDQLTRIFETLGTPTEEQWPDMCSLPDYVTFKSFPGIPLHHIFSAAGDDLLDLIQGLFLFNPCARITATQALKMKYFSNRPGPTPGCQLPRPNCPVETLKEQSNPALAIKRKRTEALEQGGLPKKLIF
UniProt P02545, residues 1-646: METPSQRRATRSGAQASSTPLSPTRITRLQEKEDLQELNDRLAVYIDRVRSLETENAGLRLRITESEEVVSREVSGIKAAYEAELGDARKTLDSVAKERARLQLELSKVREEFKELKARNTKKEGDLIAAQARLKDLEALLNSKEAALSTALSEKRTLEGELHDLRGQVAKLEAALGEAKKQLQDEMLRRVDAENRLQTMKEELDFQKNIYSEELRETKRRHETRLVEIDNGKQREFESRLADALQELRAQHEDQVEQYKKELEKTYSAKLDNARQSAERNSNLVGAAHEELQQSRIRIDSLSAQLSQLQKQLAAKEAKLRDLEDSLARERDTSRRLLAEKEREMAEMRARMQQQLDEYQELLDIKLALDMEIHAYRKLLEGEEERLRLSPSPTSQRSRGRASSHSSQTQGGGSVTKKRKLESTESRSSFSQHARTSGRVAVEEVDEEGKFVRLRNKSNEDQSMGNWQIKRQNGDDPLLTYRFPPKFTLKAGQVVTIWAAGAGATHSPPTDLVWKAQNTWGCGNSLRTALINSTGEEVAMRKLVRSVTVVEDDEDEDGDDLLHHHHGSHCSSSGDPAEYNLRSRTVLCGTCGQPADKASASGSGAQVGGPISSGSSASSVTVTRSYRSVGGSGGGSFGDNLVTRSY
UniProt Q7Z406: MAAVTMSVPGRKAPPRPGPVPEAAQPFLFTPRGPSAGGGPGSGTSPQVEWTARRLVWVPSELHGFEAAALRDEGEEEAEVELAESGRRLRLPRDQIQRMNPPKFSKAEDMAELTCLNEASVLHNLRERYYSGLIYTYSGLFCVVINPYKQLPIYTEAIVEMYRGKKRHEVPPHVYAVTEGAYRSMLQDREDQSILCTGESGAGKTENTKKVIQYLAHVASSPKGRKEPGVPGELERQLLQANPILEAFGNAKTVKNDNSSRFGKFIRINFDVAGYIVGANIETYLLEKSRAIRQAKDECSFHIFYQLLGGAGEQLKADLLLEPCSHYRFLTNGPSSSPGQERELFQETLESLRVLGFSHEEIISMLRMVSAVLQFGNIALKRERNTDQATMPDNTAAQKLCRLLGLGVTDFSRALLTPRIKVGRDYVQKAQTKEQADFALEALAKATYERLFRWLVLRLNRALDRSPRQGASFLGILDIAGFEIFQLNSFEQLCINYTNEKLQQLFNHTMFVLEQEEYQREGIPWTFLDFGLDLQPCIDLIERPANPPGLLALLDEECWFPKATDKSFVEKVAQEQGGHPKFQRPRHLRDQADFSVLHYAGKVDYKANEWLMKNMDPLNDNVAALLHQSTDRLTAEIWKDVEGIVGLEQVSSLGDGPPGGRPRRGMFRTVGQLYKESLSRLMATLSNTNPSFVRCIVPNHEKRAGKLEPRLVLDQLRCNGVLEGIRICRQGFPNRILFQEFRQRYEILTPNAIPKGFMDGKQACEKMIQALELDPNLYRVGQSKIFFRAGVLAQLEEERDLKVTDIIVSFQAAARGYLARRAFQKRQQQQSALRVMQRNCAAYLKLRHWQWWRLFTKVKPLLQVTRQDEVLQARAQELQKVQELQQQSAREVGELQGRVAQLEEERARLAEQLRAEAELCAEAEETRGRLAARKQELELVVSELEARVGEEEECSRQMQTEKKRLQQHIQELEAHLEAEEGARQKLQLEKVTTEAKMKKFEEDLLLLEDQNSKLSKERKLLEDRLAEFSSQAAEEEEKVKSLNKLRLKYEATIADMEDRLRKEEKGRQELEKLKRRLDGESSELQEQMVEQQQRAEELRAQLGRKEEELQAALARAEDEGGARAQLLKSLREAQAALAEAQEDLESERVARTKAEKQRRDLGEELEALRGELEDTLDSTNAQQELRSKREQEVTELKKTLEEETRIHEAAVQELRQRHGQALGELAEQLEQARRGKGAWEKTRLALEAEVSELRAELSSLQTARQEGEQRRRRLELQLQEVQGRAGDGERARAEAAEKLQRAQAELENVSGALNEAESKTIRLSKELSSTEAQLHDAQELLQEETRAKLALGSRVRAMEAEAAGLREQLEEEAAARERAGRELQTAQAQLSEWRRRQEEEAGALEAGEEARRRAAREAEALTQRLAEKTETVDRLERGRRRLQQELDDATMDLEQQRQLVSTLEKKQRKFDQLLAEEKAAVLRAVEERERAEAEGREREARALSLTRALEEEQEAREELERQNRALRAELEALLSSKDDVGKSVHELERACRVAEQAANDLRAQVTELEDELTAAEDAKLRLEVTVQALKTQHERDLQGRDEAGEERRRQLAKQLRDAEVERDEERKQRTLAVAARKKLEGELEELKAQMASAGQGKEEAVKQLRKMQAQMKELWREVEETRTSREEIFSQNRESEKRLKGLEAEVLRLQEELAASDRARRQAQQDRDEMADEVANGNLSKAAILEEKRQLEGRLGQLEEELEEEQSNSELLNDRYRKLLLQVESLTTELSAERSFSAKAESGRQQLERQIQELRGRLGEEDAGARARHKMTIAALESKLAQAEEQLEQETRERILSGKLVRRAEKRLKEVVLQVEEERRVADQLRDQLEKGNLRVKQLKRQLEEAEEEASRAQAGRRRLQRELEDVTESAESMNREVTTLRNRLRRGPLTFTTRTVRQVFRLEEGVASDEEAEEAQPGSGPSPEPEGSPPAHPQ
UniProt P19447: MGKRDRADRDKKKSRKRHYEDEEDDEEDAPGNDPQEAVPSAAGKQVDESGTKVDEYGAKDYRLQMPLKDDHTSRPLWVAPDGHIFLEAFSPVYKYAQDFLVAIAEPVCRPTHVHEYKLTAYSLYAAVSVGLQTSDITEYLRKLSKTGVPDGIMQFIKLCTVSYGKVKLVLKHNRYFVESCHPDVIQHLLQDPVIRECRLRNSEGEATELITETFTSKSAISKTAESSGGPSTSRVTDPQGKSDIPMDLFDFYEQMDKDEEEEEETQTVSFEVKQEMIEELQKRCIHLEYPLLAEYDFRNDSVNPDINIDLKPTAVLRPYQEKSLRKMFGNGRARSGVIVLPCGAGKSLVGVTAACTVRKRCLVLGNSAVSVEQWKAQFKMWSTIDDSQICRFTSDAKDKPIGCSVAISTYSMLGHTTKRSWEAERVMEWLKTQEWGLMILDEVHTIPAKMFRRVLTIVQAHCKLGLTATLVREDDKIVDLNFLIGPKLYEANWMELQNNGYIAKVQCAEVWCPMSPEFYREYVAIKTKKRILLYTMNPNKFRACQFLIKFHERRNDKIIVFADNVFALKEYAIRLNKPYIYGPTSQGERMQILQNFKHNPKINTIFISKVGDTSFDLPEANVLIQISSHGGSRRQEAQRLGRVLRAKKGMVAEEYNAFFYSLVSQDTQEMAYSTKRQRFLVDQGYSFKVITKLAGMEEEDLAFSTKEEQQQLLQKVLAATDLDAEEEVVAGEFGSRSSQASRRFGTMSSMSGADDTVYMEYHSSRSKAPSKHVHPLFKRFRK
UniProt P35580: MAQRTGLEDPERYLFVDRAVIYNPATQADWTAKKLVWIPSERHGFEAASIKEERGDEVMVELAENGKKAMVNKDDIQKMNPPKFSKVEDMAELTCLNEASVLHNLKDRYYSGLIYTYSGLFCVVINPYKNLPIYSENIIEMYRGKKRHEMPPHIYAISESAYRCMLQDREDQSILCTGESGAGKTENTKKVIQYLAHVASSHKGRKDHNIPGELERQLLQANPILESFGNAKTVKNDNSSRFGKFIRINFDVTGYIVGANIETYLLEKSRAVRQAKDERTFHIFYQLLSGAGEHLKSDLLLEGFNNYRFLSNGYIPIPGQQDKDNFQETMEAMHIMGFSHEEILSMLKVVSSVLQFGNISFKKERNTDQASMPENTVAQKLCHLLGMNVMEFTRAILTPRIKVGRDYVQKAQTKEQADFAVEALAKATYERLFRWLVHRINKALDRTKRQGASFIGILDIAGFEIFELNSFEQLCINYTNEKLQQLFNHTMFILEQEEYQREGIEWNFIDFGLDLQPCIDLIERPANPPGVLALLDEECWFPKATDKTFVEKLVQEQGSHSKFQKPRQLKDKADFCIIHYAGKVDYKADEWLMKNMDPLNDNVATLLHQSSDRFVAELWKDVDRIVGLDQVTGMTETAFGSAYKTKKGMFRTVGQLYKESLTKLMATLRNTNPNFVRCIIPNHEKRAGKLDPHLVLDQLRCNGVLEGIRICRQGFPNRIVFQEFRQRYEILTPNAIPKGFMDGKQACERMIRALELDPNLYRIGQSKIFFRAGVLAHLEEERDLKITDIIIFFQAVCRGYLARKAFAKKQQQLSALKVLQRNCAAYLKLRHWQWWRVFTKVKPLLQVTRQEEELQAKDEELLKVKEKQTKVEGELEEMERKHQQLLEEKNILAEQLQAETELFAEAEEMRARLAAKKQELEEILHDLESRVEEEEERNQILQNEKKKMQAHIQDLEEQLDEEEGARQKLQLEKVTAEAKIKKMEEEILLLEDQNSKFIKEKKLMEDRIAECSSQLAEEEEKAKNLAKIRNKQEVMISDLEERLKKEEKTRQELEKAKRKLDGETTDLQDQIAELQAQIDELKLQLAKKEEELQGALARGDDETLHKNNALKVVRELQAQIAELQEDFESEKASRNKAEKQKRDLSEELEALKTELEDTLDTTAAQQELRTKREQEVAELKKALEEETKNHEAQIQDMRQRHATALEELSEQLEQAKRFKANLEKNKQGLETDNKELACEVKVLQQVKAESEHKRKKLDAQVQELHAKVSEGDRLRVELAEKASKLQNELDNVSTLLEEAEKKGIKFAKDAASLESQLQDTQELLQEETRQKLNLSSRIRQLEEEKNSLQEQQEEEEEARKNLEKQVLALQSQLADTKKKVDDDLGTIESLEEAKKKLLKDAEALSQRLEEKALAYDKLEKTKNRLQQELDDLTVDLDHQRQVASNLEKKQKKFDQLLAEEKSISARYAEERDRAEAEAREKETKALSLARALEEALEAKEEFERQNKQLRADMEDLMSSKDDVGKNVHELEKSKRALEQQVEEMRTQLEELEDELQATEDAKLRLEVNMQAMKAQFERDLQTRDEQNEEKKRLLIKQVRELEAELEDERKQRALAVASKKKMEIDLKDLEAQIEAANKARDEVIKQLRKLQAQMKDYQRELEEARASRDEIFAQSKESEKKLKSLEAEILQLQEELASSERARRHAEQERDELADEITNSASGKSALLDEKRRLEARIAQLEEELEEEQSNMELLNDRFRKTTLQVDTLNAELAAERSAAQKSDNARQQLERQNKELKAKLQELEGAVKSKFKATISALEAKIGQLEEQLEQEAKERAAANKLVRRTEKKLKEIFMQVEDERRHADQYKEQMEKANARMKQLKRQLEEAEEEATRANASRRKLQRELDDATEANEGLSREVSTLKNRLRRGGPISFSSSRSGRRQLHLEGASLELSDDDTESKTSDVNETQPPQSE
UniProt Q8N726: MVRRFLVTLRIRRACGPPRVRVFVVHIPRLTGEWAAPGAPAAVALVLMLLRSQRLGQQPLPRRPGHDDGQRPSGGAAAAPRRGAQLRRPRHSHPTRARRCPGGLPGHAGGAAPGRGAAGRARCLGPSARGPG

How the values were obtained:
[1] = biological target: Proteasome subunit alpha type-1 (human) (UniProt P25786); assay: proximity labelling; BioID: MAC-tagged bait in stable Flp-In T-REx 293 cells, tetracycline and 50 uM biotin 24 h; lysis buffer 2 (as buffer 1 with 0.1% SDS), sonication, benzonase; biotinylated proteins on Strep-Tactin beads; LC-MS; SAINT and CRAPome filter
[2] = biological target: cyclin-dependent kinase (CDK) 7 (human) (UniProt P50613); assay: affinity purification with mass spectrometry; MAC-tagged bait in stable Flp-In T-REx 293 cells, 1 ug/ml tetracycline 24 h, no biotin; lysis buffer 1 (0.5% IGEPAL, 50 mM Hepes pH 8.0, 150 mM NaCl, 50 mM NaF, 5 mM EDTA); single-step Strep-Tactin beads, elution with 0.5 mM biotin; LC-MS; SAINT score >= 0.73 and CRAPome filter against MAC-GFP controls
[3] = biological target: cyclin-dependent kinase (CDK) 7 (human) (UniProt P50613); assay: proximity labelling; BioID: MAC-tagged bait in stable Flp-In T-REx 293 cells, tetracycline and 50 uM biotin 24 h; lysis buffer 2 (as buffer 1 with 0.1% SDS), sonication, benzonase; biotinylated proteins on Strep-Tactin beads; LC-MS; SAINT and CRAPome filter
[4] = biological target: Prelamin-A/C (human) (UniProt P02545); assay: affinity purification with mass spectrometry + proximity labelling; MAC-tagged bait in Flp-In T-REx 293 cells, Strep-Tactin purification, LC-MS; the sentence names the hit without telling which of the two approaches (AP-MS, BioID) found it
[5] = biological target: Prelamin-A/C (human) (UniProt P02545); assay: affinity purification with mass spectrometry; MAC-tagged bait in stable Flp-In T-REx 293 cells, 1 ug/ml tetracycline 24 h, no biotin; lysis buffer 1 (0.5% IGEPAL, 50 mM Hepes pH 8.0, 150 mM NaCl, 50 mM NaF, 5 mM EDTA); single-step Strep-Tactin beads, elution with 0.5 mM biotin; LC-MS; SAINT score >= 0.73 and CRAPome filter against MAC-GFP controls
[6] = biological target: Prelamin-A/C (human) (UniProt P02545); assay: proximity labelling; BioID: MAC-tagged bait in stable Flp-In T-REx 293 cells, tetracycline and 50 uM biotin 24 h; lysis buffer 2 (as buffer 1 with 0.1% SDS), sonication, benzonase; biotinylated proteins on Strep-Tactin beads; LC-MS; SAINT and CRAPome filter

Molecule | binding [2] | binding [3] | binding [4] | other results
MYH14 (from UniProt Q7Z406 1-1995) | – | – | – | binding [1]: binds
TFIIH basal transcription factor complex helicase XPB subunit (from UniProt P19447 1-782) | binds | binds | – | –
MYO6 (from UniProt Q9UM54 1-1294) | – | – | – | binding [1]: binds
HDGR2 (from UniProt Q7Z4V5 1-671) | – | – | binds | –
RAD50 (from UniProt Q92878 1-1312) | – | – | binds | –
MYH10 (from UniProt P35580 1-1976) | – | – | – | binding [1]: binds
TFIIH1 (from UniProt P32780 1-548) | binds | binds | – | –
PARP1 (from UniProt P09874 1-1014) | – | – | binds | –
KI67 (from UniProt P46013 1-3256) | – | – | binds | –
ARF (from UniProt Q8N726 1-132) | – | – | binds | –
MYO1B (from UniProt O43795 1-1136) | – | – | – | binding [1]: binds
inner nuclear membrane protein Man1 (protein, UniProt Q9Y2U8 1-911) MAAAAASAPQQLSDEELFSQLRRYGLSPGPVTESTRPVYLKKLKKLREEEQQQHRSGGRGNKTRNSNNNNTAAATVAAAGPAAAAAAGMGVRPVSGDLSYLRTPGGLCRISASGPESLLGGPGGASAAPAAGSKVLLGFSSDESDVEASPRDQAGGGGRKDRASLQYRGLKAPPAPLAASEVTNSNSAERRKPHSWWGARRPAGPELQTPPGKDGAVEDEEGEGEDGEERDPETEEPLWASRTVNGSRLVPYSCRENYSDSEEEDDDDVASSRQVLKDDSLSRHRPRRTHSKPLPPLTAKSAGGRLETSVQGGGGLAMNDRAAAAGSLDRSRNLEEAAAAEQGGGCDQVDSSPVPRYRVNAKKLTPLLPPPLTDMDSTLDSSTGSLLKTNNHIGGGAFSVDSPRIYSNSLPPSAAVAASSSLRINHANHTGSNHTYLKNTYNKPKLSEPEEELLQQFKREEVSPTGSFSAHYLSMFLLTAACLFFLILGLTYLGMRGTGVSEDGELSIENPFGETFGKIQESEKTLMMNTLYKLHDRLAQLAGDHECGSSSQRTLSVQEAAAYLKDLGPEYEGIFNTSLQWILENGKDVGIRCVGFGPEEELTNITDVQFLQSTRPLMSFWCRFRRAFVTVTHRLLLLCLGVVMVCVVLRYMKYRWTKEEEETRQMYDMVVKIIDVLRSHNEACQENKDLQPYMPIPHVRDSLIQPHDRKKMKKVWDRAVDFLAANESRVRTETRRIGGADFLVWRWIQPSASCDKILVIPSKVWQGQAFHLDRRNSPPNSLTPCLKIRNMFDPVMEIGDQWHLAIQEAILEKCSDNDGIVHIAVDKNSREGCVYVKCLSPEYAGKAFKALHGSWFDGKLVTVKYLRLDRYHHRFPQALTSNTPLKPSNKHMNSMSHLRLRTGLTNSQGSS | – | – | – | binding [5]: binds; binding [6]: binds
NUP50 (protein, UniProt Q9UKX7 1-468) MAKRNAEKELTDRNWDQEDEAEEVGTFSMASEEVLKNRAIKKAKRRNVGFESDTGGAFKGFKGLVVPSGGGRFSGFGSGAGGKPLEGLSNGNNITSAPPFASAKAAADPKVAFGSLAANGPTTLVDKVSNPKTNGDSQQPSSSGLASSKACVGNAYHKQLAALNCSVRDWIVKHVNTNPLCDLTPIFKDYEKYLANIEQQHGNSGRNSESESNKVAAETQSPSLFGSTKLQQESTFLFHGNKTEDTPDKKMEVASEKKTDPSSLGATSASFNFGKKVDSSVLGSLSSVPLTGFSFSPGNSSLFGKDTTQSKPVSSPFPTKPLEGQAEGDSGECKGGDEEENDEPPKVVVTEVKEEDAFYSKKCKLFYKKDNEFKEKGIGTLHLKPTANQKTQLLVRADTNLGNILLNVLIPPNMPCTRTGKNNVLIVCVPNPPIDEKNATMPVTMLIRVKTSEDADELHKILLEKKDA | – | – | – | binding [5]: binds; binding [6]: binds
EDF1 (protein, UniProt O60869 1-148) MAESDWDTVTVLRKKGPTAAQAKSKQAILAAQRRGEDVETSKKWAAGQNKQHSITKNTAKLDRETEELHHDRVTLEVGKVIQQGRQSKGLTQKDLATKINEKPQVIADYESGRAIPNNQVLGKIERAIGLKLRGKDIGKPIEKGPRAK | – | – | binds | –
MYSM1 (protein, UniProt Q5VVJ2 1-828) MAAEEADVDIEGDVVAAAGAQPGSGENTASVLQKDHYLDSSWRTENGLIPWTLDNTISEENRAVIEKMLLEEEYYLSKKSQPEKVWLDQKEDDKKYMKSLQKTAKIMVHSPTKPASYSVKWTIEEKELFEQGLAKFGRRWTKISKLIGSRTVLQVKSYARQYFKNKVKCGLDKETPNQKTGHNLQVKNEDKGTKAWTPSCLRGRADPNLNAVKIEKLSDDEEVDITDEVDELSSQTPQKNSSSDLLLDFPNSKMHETNQGEFITSDSQEALFSKSSRGCLQNEKQDETLSSSEITLWTEKQSNGDKKSIELNDQKFNELIKNCNKHDGRGIIVDARQLPSPEPCEIQKNLNDNEMLFHSCQMVEESHEEEELKPPEQEIEIDRNIIQEEEKQAIPEFFEGRQAKTPERYLKIRNYILDQWEICKPKYLNKTSVRPGLKNCGDVNCIGRIHTYLELIGAINFGCEQAVYNRPQTVDKVRIRDRKDAVEAYQLAQRLQSMRTRRRRVRDPWGNWCDAKDLEGQTFEHLSAEELAKRREEEKGRPVKSLKVPRPTKSSFDPFQLIPCNFFSEEKQEPFQVKVASEALLIMDLHAHVSMAEVIGLLGGRYSEVDKVVEVCAAEPCNSLSTGLQCEMDPVSQTQASETLAVRGFSVIGWYHSHPAFDPNPSLRDIDTQAKYQSYFSRGGAKFIGMIVSPYNRNNPLPYSQITCLVISEEISPDGSYRLPYKFEVQQMLEEPQWGLVFEKTRWIIEKYRLSHSSVPMDKIFRRDSDLTCLQKLLECMRKTLSKVTNCFMAEEFLTEIENLFLSNYKSNQENGVTEENCTKELLM | – | – | binds | –
AKP8L (protein, UniProt Q9ULX6 1-646) MSYTGFVQGSETTLQSTYSDTSAQPTCDYGYGTWNSGTNRGYEGYGYGYGYGQDNTTNYGYGMATSHSWEMPSSDTNANTSASGSASADSVLSRINQRLDMVPHLETDMMQGGVYGSGGERYDSYESCDSRAVLSERDLYRSGYDYSELDPEMEMAYEGQYDAYRDQFRMRGNDTFGPRAQGWARDARSGRPMASGYGRMWEDPMGARGQCMSGASRLPSLFSQNIIPEYGMFQGMRGGGAFPGGSRFGFGFGNGMKQMRRTWKTWTTADFRTKKKKRKQGGSPDEPDSKATRTDCSDNSDSDNDEGTEGEATEGLEGTEAVEKGSRVDGEDEEGKEDGREEGKEDPEKGALTTQDENGQTKRKLQAGKKSQDKQKKRQRDRMVERIQFVCSLCKYRTFYEDEMASHLDSKFHKEHFKYVGTKLPKQTADFLQEYVTNKTKKTEELRKTVEDLDGLIQQIYRDQDLTQEIAMEHFVKKVEAAHCAACDLFIPMQFGIIQKHLKTMDHNRNRRLMMEQSKKSSLMVARSILNNKLISKKLERYLKGENPFTDSPEEEKEQEEAEGGALDEGAQGEAAGISEGAEGVPAQPPVPPEPAPGAVSPPPPPPPEEEEEGAVPLLGGALQRQIRGIPGLDVEDDEEGGGGAP | – | – | binds | –
TFIIH2 (protein, UniProt Q13888 1-395) MDEEPERTKRWEGGYERTWEILKEDESGSLKATIEDILFKAKRKRVFEHHGQVRLGMMRHLYVVVDGSRTMEDQDLKPNRLTCTLKLLEYFVEEYFDQNPISQIGIIVTKSKRAEKLTELSGNPRKHITSLKKAVDMTCHGEPSLYNSLSIAMQTLKHMPGHTSREVLIIFSSLTTCDPSNIYDLIKTLKAAKIRVSVIGLSAEVRVCTVLARETGGTYHVILDESHYKELLTHHVSPPPASSSSECSLIRMGFPQHTIASLSDQDAKPSFSMAHLDGNTEPGLTLGGYFCPQCRAKYCELPVECKICGLTLVSAPHLARSYHHLFPLDAFQEIPLEEYNGERFCYGCQGELKDQHVYVCAVCQNVFCVDCDVFVHDSLHCCPGCIHKIPAPSGV | binds | binds | – | –
TFIIH3 (protein, UniProt Q13889 1-308) MVSDEDELNLLVIVVDANPIWWGKQALKESQFTLSKCIDAVMVLGNSHLFMNRSNKLAVIASHIQESRFLYPGKNGRLGDFFGDPGNPPEFNPSGSKDGKYELLTSANEVIVEEIKDLMTKSDIKGQHTETLLAGSLAKALCYIHRMNKEVKDNQEMKSRILVIKAAEDSALQYMNFMNVIFAAQKQNILIDACVLDSDSGLLQQACDITGGLYLKVPQMPSLLQYLLWVFLPDQDQRSQLILPPPVHVDYRAACFCHRNLIEIGYVCSVCLSIFCNFSPICTTCETAFKISLPPVLKAKKKKLKVSA | binds | binds | – | –
TFIIH4 (protein, UniProt Q92759 1-462) MESTPSRGLNRVHLQCRNLQEFLGGLSPGVLDRLYGHPATCLAVFRELPSLAKNWVMRMLFLEQPLPQAAVALWVKKEFSKAQEESTGLLSGLRIWHTQLLPGGLQGLILNPIFRQNLRIALLGGGKAWSDDTSQLGPDKHARDVPSLDKYAEERWEVVLHFMVGSPSAAVSQDLAQLLSQAGLMKSTEPGEPPCITSAGFQFLLLDTPAQLWYFMLQYLQTAQSRGMDLVEILSFLFQLSFSTLGKDYSVEGMSDSLLNFLQHLREFGLVFQRKRKSRRYYPTRLAINLSSGVSGAGGTVHQPGFIVVETNYRLYAYTESELQIALIALFSEMLYRFPNMVVAQVTRESVQQAIASGITAQQIIHFLRTRAHPVMLKQTPVLPPTITDQIRLWELERDRLRFTEGVLYNQFLSQVDFELLLAHARELGVLVFENSAKRLMVVTPAGHSDVKRFWKRQKHSS | binds | binds | – | –
TFIIH5 (protein, UniProt Q6ZYL4 1-71) MVNVLKGVLIECDPAMKQFLLYLDESNALGKKFIIQDIDDTHVFVIAELVNVLQERVGELMDQNAFSLTQK | binds | binds | – | –

These are yes or no findings as the source states them, for the method shown. Binding seen in cells or lysates may run through a third protein. Here binding means that the protein was enriched with, or labelled near, the bait; the list need not be complete.
